Data source: PubChem BioAssay AID1259314 (Drosophila RNAi Screening Center, 2017)
Aim: 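Transmembrane protein genes affecting ATP after manganese overload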 (primary screen). Cells: Drosophila S2R+ cells. Knock-down reagent: long dsRNA against Drosophila genes. Timing: 5 days (4 days knock-down, then 1 day metal exposure). Conditions: manganese chloride added to 15 mM for 24 hours. Measured: 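Luciferase ATP signal used as a proxy for viable cell number, reported as one averaged z-score per dsRNA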. Direction: mean ATP z-score: higher = more ATP than the plate average, more viable cells under manganese. Call rule: 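a mean ATP z-score past 1.5 in either direction is called active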. Meaning of the calls: active = strong ATP change, up or down; inactive = no strong ATP change.
The deposit covers about 3,100 reagents; this is a part drawn at random. 289 of them (9.3%) count as active. 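Active includes both higher and lower ATP than plate average; check the z-score sign for direction.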 Entries without a mark were called inactive. The numbers tell different reagents against one gene apart. Names joined by + are all predicted targets of the reagent. Not stated in the record: the amount of reagent.

mean ATP z-score,Gene,reagent
-0.105,CG15890,1
-0.693,PIG-F (Phosphatidylinositol glycan anchor biosynthesis class F),1
0.0864,PIG-F (Phosphatidylinositol glycan anchor biosynthesis class F),2
0.448,Or88a (Odorant receptor 88a),1
-0.693,Or88a (Odorant receptor 88a),2
0.516,Surf4 (Surfeit 4),1
-0.339,Surf4 (Surfeit 4),2
-1.14,CG31445,1
0.474,CG31445,2
-0.705,CG9416,1
-0.054,Tmx3 (Thioredoxin-related transmembrane protein 3),1
-0.964,Tmx3 (Thioredoxin-related transmembrane protein 3),2
0.0853,CG1688,1
0.862,CG33253,1
0.683,CG33253,2
-0.0813,Delta,1
-0.659,Delta,2
-1.33,CG10073,1
-1.63 (active),Afg3l2 (AFG3 like matrix AAA peptidase subunit 2),1
-1.48,Afg3l2 (AFG3 like matrix AAA peptidase subunit 2),2
-0.26,CG7720,1
2.86 (active),CG7720,2
0.457,Nckx30C,1
0.494,Nckx30C,2
-1.32,Nckx30C,3
0.0458,slo (slowpoke),1
-0.765,Sln (Silnoon),1
-0.187,Sln (Silnoon),2
-1.13,CG42826,1
-0.258,Tsp42Ec (Tetraspanin 42Ec),1
0.0195,Tsp42Ec (Tetraspanin 42Ec),2
-0.733,cry (cryptochrome),1
0.0523,cry (cryptochrome),2
1.1,CG30265,1
0.236,CG13426,1
0.74,nAChRalpha3 (nicotinic Acetylcholine Receptor alpha3),1
2.38 (active),nAChRalpha3 (nicotinic Acetylcholine Receptor alpha3),2
0.314,M6,1
-1.15,M6,2
1.22,CG17646,1
0.51,CG17646,2
-0.644,Or45a (Odorant receptor 45a),1
-0.335,Or45a (Odorant receptor 45a),2
-1.36,CG5687,1
0.0772,CG5687,2
0.841,VhaPPA1-2 (Vacuolar H[+] ATPase PPA1 subunit 2),1
-0.274,VhaPPA1-2 (Vacuolar H[+] ATPase PPA1 subunit 2),2
-1.26,CG31121,1
1.15,CG31121,2
0.074,CG33639,1
2.31 (active),CG33639,2
0.836,mthl3 (methuselah-like 3),1
2.53 (active),mthl3 (methuselah-like 3),2
-0.989,CG10486,1
1.91 (active),CG10486,2
-0.366,Tsp3A (Tetraspanin 3A),1
1.68 (active),Tsp3A (Tetraspanin 3A),2
-0.139,Ir11a (Ionotropic receptor 11a),1
-0.516,Ir11a (Ionotropic receptor 11a),2
-0.147,CG4465,1
-0.31,CG4465,2
0.166,CG8389,1
0.965,CG8389,2
0.0132,PIG-B (Phosphatidylinositol glycan anchor biosynthesis class B),1
-0.758,PIG-B (Phosphatidylinositol glycan anchor biosynthesis class B),2
0.0236,Rh5 (Rhodopsin 5),1
1.62 (active),Rh5 (Rhodopsin 5),2
0.173,CG43672 + CG43673,1
0.68,CG43672 + CG43673,2
1.52 (active),loj (logjam),1
2.38 (active),loj (logjam),2

Called active, among the entries above:
mean ATP z-score,Gene,reagent
-1.63 (active),Afg3l2 (AFG3 like matrix AAA peptidase subunit 2),1
2.86 (active),CG7720,2
2.38 (active),nAChRalpha3 (nicotinic Acetylcholine Receptor alpha3),2
2.31 (active),CG33639,2
2.53 (active),mthl3 (methuselah-like 3),2
1.91 (active),CG10486,2
1.68 (active),Tsp3A (Tetraspanin 3A),2
1.62 (active),Rh5 (Rhodopsin 5),2
1.52 (active),loj (logjam),1
2.38 (active),loj (logjam),2

The results go on:
mean ATP z-score,Gene,reagent
-0.0365,ldd (lipid droplet defective),1
1.81 (active),ldd (lipid droplet defective),2
1.45,Tmtc2 (Transmembrane O-mannosyltransferase targeting cadherins 2),1
-0.68,PIG-G (Phosphatidylinositol glycan anchor biosynthesis class G),1
0.571,Tango5 (Transport and Golgi organization 5),1
1.65 (active),Tango5 (Transport and Golgi organization 5),2
2.48 (active),Tsp66A + CG42660 + CG42661,1
-1.15,Tmhs (Tetraspan membrane protein in hair cell stereocilia),1
-0.238,Efr (ER GDP-fucose transporter),1
-0.178,Efr (ER GDP-fucose transporter),2
0.14,salt (salty dog),1
0.516,CG4630,1
0.91,CG4630,2
-0.276,CG6927,1
-0.202,CG6927,2
1.44,CG16727,1
1.54 (active),CG16727,2
-0.397,MFS9 (Major Facilitator Superfamily Transporter 9),1
-0.256,OtopLc (Otopetrin-like c),1
-0.532,OtopLc (Otopetrin-like c),2
-0.39,Tmtc1 (Transmembrane O-mannosyltransferase targeting cadherins 1),1
1.08,Tmtc1 (Transmembrane O-mannosyltransferase targeting cadherins 1),2
-1.01,SCAP (SREBP cleavage activating protein),1
-0.227,SCAP (SREBP cleavage activating protein),2
-0.369,Ir75a (Ionotropic receptor 75a),1
2.53 (active),Ir75a (Ionotropic receptor 75a),2
-0.662,DopEcR (Dopamine/Ecdysteroid receptor),1
-1.03,Nup214 (Nucleoporin 214kD),1
0.459,Nup214 (Nucleoporin 214kD),2
-0.622,Gr94a (Gustatory receptor 94a),1
0.25,Gr94a (Gustatory receptor 94a),2
-0.536,otk2 (off-track2),1
0.448,PIG-O (Phosphatidylinositol glycan anchor biosynthesis class O),1
-0.786,PIG-O (Phosphatidylinositol glycan anchor biosynthesis class O),2
-0.12,Inx5 (Innexin 5),1
-0.199,Or85d (Odorant receptor 85d),1
0.721,Or85d (Odorant receptor 85d),2
-0.751,mthl5 (methuselah-like 5),1
-0.617,mthl5 (methuselah-like 5),2
